We go through 57 targets from the supplement of paper PMC6411743.

The chains behind the UniProt entries cited, without tags or fusion partners. Where a name states a change or a piece, a line headed by the entry shows the natural chain unless it says otherwise.
UniProt Q15149: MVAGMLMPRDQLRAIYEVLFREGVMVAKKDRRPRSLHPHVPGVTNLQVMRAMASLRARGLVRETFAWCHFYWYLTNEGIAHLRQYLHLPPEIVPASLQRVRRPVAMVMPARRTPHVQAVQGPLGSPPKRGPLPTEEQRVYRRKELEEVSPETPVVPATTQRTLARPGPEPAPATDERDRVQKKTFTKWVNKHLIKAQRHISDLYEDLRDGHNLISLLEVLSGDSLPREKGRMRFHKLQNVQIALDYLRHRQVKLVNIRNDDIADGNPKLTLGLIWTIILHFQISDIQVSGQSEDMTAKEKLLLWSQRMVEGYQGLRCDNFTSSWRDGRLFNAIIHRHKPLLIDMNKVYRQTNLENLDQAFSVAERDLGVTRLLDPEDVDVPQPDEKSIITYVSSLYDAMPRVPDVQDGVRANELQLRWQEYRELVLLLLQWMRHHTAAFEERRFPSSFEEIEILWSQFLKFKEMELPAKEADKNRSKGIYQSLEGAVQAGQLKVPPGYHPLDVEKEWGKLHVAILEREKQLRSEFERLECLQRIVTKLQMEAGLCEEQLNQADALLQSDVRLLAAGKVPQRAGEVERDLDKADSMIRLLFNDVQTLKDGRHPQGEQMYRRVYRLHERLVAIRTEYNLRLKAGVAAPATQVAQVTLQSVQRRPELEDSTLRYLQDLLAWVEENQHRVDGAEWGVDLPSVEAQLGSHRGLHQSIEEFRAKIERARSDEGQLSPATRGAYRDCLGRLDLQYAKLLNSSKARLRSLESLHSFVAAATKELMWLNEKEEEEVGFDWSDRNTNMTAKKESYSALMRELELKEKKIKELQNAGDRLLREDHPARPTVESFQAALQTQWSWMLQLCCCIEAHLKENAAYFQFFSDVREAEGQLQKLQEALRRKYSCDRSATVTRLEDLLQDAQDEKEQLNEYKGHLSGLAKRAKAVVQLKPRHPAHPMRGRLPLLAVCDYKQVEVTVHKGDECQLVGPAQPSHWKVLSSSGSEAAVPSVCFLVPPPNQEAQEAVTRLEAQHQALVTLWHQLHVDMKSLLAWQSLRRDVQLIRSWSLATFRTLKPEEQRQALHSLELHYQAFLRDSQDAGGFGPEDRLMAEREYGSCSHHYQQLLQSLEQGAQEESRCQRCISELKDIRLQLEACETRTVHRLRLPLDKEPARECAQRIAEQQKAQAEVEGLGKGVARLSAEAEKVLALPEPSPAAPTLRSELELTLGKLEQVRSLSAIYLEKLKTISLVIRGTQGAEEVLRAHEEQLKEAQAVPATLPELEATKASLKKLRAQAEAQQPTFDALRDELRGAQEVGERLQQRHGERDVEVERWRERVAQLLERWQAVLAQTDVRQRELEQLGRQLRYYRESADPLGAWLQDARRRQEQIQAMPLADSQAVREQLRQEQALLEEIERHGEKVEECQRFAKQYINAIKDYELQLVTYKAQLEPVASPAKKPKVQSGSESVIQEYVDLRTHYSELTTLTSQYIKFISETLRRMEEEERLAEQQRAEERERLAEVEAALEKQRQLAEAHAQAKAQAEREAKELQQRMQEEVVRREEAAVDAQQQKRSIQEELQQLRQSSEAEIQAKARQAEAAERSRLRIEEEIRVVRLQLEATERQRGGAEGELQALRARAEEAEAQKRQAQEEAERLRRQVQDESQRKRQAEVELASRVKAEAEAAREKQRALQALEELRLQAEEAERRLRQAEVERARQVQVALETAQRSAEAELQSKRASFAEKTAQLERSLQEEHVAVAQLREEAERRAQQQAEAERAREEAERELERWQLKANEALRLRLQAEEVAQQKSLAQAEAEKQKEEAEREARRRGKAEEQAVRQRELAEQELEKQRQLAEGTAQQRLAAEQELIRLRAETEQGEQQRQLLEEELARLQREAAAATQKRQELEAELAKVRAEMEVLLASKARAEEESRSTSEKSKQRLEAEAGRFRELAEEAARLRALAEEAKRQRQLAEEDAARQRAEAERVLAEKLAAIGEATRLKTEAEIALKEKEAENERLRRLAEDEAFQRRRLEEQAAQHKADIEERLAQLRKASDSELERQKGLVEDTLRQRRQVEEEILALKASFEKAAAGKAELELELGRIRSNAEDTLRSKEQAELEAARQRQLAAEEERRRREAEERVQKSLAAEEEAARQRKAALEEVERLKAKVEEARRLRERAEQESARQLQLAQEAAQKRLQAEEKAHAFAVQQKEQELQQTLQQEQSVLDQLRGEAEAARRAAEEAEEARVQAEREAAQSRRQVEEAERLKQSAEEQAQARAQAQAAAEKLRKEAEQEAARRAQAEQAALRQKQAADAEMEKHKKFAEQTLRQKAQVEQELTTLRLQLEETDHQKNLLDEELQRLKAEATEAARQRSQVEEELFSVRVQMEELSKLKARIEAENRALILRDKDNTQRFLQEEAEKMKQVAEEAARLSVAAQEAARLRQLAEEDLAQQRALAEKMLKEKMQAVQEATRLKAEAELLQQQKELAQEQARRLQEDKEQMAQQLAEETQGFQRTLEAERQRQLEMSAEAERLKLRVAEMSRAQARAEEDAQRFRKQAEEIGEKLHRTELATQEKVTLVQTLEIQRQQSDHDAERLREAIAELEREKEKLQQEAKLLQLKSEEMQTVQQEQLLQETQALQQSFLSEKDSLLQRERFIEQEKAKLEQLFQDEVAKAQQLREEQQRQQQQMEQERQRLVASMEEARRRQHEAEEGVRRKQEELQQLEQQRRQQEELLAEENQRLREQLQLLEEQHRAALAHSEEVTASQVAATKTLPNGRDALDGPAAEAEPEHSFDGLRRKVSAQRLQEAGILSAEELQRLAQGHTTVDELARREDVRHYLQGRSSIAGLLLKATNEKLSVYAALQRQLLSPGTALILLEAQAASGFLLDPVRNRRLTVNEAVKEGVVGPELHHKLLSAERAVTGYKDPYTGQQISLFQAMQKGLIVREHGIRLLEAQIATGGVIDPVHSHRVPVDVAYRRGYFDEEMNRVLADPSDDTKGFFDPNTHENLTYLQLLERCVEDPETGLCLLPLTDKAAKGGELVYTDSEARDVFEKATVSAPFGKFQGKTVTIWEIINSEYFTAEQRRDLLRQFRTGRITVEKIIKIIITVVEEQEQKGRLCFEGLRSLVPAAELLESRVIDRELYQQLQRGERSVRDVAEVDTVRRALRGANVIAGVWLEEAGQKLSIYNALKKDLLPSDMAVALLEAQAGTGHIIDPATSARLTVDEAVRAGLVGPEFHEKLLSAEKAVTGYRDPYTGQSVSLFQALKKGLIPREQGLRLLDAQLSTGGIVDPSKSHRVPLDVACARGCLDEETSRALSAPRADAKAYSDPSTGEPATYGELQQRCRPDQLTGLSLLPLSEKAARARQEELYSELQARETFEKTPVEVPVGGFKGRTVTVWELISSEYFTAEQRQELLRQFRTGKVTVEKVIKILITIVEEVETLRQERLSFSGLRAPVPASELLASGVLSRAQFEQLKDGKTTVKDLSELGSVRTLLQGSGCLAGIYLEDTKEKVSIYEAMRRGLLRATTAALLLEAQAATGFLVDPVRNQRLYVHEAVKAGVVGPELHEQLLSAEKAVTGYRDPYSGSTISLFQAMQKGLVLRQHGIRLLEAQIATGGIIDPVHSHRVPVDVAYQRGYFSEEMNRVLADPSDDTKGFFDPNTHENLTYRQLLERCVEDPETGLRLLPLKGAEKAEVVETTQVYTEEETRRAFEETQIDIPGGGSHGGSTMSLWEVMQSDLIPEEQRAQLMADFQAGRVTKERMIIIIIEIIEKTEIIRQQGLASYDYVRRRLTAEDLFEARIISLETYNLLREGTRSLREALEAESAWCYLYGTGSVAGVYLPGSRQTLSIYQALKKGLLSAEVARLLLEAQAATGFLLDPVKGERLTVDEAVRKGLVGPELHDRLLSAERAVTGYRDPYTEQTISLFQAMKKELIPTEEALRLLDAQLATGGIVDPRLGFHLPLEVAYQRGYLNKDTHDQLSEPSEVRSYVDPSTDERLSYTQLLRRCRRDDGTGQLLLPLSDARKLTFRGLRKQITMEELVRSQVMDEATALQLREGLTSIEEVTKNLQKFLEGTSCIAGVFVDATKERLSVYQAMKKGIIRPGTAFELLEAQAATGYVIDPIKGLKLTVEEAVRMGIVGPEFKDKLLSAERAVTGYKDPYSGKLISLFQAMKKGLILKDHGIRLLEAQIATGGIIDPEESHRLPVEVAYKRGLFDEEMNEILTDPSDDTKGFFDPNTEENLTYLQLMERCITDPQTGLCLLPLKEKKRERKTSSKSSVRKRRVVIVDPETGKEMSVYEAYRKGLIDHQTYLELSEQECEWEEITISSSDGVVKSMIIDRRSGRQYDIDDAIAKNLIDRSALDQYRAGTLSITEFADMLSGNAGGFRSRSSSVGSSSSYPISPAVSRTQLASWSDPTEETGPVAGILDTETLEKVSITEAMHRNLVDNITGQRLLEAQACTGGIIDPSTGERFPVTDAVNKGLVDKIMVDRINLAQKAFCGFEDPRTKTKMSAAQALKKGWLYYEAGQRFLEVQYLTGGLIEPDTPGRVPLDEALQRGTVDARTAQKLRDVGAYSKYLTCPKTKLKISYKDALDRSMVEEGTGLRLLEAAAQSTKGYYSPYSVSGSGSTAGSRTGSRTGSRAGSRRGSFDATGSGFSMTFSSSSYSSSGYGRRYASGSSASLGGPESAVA
UniProt Q16762: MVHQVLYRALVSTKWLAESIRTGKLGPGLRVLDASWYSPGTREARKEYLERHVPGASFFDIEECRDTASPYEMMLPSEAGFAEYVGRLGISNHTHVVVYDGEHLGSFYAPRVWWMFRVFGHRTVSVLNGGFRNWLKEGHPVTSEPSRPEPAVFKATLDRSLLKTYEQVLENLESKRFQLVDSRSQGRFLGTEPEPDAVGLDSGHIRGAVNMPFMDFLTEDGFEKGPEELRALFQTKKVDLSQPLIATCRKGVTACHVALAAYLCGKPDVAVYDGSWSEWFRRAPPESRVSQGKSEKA
UniProt Q15904, whole entry: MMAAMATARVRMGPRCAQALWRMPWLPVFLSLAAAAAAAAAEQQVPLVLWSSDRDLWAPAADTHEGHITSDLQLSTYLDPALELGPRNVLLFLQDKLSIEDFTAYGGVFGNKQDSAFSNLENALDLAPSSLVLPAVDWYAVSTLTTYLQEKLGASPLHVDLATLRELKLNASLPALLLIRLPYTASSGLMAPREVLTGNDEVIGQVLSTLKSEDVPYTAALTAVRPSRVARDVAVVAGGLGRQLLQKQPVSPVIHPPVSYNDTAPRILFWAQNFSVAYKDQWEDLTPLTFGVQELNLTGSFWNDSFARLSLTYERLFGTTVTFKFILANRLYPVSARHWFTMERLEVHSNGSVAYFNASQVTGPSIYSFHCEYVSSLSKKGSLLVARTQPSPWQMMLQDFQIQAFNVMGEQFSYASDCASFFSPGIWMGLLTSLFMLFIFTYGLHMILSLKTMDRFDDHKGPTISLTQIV
UniProt Q5JU69: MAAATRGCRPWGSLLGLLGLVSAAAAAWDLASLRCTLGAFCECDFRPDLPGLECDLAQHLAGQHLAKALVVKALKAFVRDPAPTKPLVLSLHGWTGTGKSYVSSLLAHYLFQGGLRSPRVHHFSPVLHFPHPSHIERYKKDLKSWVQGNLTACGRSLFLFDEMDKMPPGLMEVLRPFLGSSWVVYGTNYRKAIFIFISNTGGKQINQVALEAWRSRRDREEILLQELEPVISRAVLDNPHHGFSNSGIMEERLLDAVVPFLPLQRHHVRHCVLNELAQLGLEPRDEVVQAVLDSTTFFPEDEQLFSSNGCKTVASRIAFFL
UniProt Q9H3S1: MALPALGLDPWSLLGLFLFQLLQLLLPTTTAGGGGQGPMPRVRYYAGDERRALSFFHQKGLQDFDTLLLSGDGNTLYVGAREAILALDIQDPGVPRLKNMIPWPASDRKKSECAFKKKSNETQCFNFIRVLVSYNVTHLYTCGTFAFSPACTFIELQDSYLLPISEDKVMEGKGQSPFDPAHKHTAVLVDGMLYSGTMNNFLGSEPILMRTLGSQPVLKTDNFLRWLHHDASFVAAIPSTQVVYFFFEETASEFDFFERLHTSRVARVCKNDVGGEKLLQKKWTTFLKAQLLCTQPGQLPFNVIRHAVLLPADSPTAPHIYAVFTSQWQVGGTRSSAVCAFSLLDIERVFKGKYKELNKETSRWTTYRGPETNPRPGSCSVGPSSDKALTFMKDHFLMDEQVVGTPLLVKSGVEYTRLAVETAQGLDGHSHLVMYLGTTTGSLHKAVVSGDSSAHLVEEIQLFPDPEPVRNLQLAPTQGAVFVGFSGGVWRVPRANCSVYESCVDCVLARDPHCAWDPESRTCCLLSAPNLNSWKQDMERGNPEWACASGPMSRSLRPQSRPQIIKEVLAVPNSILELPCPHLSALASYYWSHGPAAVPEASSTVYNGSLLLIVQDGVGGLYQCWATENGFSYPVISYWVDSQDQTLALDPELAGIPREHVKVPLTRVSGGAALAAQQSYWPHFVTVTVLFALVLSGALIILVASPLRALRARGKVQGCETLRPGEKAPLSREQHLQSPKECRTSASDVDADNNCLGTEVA

Compound in this test: Nc1ncnc2c1ncn2[C@@H]1O[C@H](COP(=O)(O)OP(=O)(O)NP(=O)(O)O)[C@@H](O)[C@H]1O [adenylyl imidodiphosphate]
In words: NP40-soluble protein abundance relative to vehicle (solubility fold change) (ratio); higher = more soluble protein in presence of AMP-PNP. A digest of the protocol:
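Data come from three independent experiments in which Dounce-homogenised Jurkat crude lysate was treated at eight concentrations from 0.1 to 10 mM. Treatment ran 10 min at room temperature and then 3 min at 37 °C, after which 0.8% NP40 and benzonase were added for 60 min at 4 °C before ultracentrifugation. The supernatant underwent TMT labelling and LC-MS/MS, and vsn-normalised intensities were expressed as fold change against the detergent-processed vehicle in each replicate.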

± gives the standard deviation of the averaged measurements. Only a part is listed here, and it is no random draw. Most entries show no effect beyond the scatter of the controls.

TAF11 (UniProt Q15544): the NP40-soluble protein abundance runs as follows: (concentration: 0.1mM) 1.012 ± 0.0031; (concentration: 0.5mM) 1.03 ± 0.011.

On to UniProt Q5TCQ9-4, for which the NP40-soluble protein abundance (concentration: 0.1mM) is 0.9796 ± 0.0053 and the NP40-soluble protein abundance (concentration: 0.5mM) was 1 ± 0.012.

As for UniProt Q5T3I0 and related entries, the NP40-soluble protein abundance reads like this: (concentration: 0.1mM) 1.07 ± 0.023; (concentration: 0.5mM) 1.08 ± 0.053.

For the target BEND3 (UniProt Q5T5X7), the NP40-soluble protein abundance runs as follows: (concentration: 0.1mM) 1.01 ± 0.021; (concentration: 0.5mM) 0.998 ± 0.041.

As to TBCC (UniProt Q15814), the NP40-soluble protein abundance (concentration: 0.1mM) was found to be 0.996 ± 0.012 and the NP40-soluble protein abundance (concentration: 0.5mM) was determined as 1 ± 0.04.

Regarding RAB11B (UniProt Q15907), the NP40-soluble protein abundance is 1 ± 0.043 (concentration: 0.1mM) and 0.965 ± 0.065 (concentration: 0.5mM).

With UniProt Q2TAY7, the NP40-soluble protein abundance (concentration: 0.1mM) amounted to 1.03 ± 0.063 and the NP40-soluble protein abundance (concentration: 0.5mM) is 1.03 ± 0.081.

In the case of HERC1 (UniProt Q15751), the NP40-soluble protein abundance came out at 0.958 ± 0.071 (concentration: 0.1mM) and 0.954 ± 0.017 (concentration: 0.5mM).

Regarding SLC1A5 (UniProt Q15758), the NP40-soluble protein abundance (concentration: 0.1mM) came to 0.965 ± 0.026 and the NP40-soluble protein abundance (concentration: 0.5mM) was found to be 0.938 ± 0.028.

With UniProt Q15149 and related entries, the NP40-soluble protein abundance is, setting by setting: (concentration: 0.1mM) 1.04 ± 0.045; (concentration: 0.5mM) 1.02 ± 0.011.

On to “Q5THR1 and related entries (UniProt Q9H5Z1)”, for which the NP40-soluble protein abundance was 0.9857 ± 0.0027 (concentration: 0.1mM) and 0.958 ± 0.045 (concentration: 0.5mM).

For COX19 (UniProt Q49B96), the NP40-soluble protein abundance reads like this: (concentration: 0.1mM) 1.029 ± 0.0041; (concentration: 0.5mM) 0.989 ± 0.047.

Regarding RSU1 (UniProt Q15404), the NP40-soluble protein abundance runs as follows: (concentration: 0.1mM) 1 ± 0.014; (concentration: 0.5mM) 1.04 ± 0.036.

For NSDHL (UniProt Q15738), the NP40-soluble protein abundance came to 0.993 ± 0.026 (concentration: 0.1mM) and 0.98 ± 0.031 (concentration: 0.5mM).

For the target UniProt Q15120 and related entries, the NP40-soluble protein abundance was found to be 1.07 ± 0.1 (concentration: 0.1mM) and 1.02 ± 0.063 (concentration: 0.5mM).

As to “Q5JQQ4 and related entries (UniProt Q9BVM2)”, the NP40-soluble protein abundance came out at 1.03 ± 0.039 (concentration: 0.1mM) and 1.02 ± 0.061 (concentration: 0.5mM).

As for UniProt Q15723 and related entries, the NP40-soluble protein abundance (concentration: 0.1mM) worked out at 0.985 ± 0.016 and the NP40-soluble protein abundance (concentration: 0.5mM) turned out to be 0.98 ± 0.058.

For UniProt Q1ED39, the NP40-soluble protein abundance runs as follows: (concentration: 0.1mM) 0.974 ± 0.031; (concentration: 0.5mM) 1.01 ± 0.055.

ZNHIT3 (UniProt Q15649): the NP40-soluble protein abundance by setting is: (concentration: 0.1mM) 0.986 ± 0.019; (concentration: 0.5mM) 1.005 ± 0.0093.

Consider UniProt Q3L8U1 and related entries, for which the NP40-soluble protein abundance is, setting by setting: (concentration: 0.1mM) 1.01 ± 0.053; (concentration: 0.5mM) 0.986 ± 0.024.

Regarding TERF2 (UniProt Q15554), the NP40-soluble protein abundance runs as follows: (concentration: 0.1mM) 0.996 ± 0.025; (concentration: 0.5mM) 1.05 ± 0.031.

As to PPP2R5A (UniProt Q15172), the NP40-soluble protein abundance was 1.01 ± 0.017 (concentration: 0.1mM) and 0.9911 ± 0.0062 (concentration: 0.5mM).

Regarding HNRNPUL2 (UniProt Q1KMD3), the NP40-soluble protein abundance by setting is: (concentration: 0.1mM) 1.03 ± 0.054; (concentration: 0.5mM) 1 ± 0.08.

Turning to UniProt Q15329 and related entries, the NP40-soluble protein abundance was found to be 0.972 ± 0.013 (concentration: 0.1mM) and 0.976 ± 0.044 (concentration: 0.5mM).

With RABL3 (UniProt Q5HYI8), the NP40-soluble protein abundance is 1.02 ± 0.012 (concentration: 0.1mM) and 1.01 ± 0.017 (concentration: 0.5mM).

For the target UniProt Q5T280, the NP40-soluble protein abundance runs as follows: (concentration: 0.1mM) 0.987 ± 0.013; (concentration: 0.5mM) 1.02 ± 0.02.

As for UniProt Q15370 and related entries, the NP40-soluble protein abundance by setting is: (concentration: 0.1mM) 0.997 ± 0.03; (concentration: 0.5mM) 1.04 ± 0.055.

For “Q5JVZ5 and related entries (UniProt Q96JJ3)”, the NP40-soluble protein abundance is, setting by setting: (concentration: 0.1mM) 0.945 ± 0.034; (concentration: 0.5mM) 0.925 ± 0.061.

On to TST (UniProt Q16762), for which the NP40-soluble protein abundance (concentration: 0.1mM) is 1 ± 0.017 and the NP40-soluble protein abundance (concentration: 0.5mM) was 1.01 ± 0.032.

For the target UniProt Q5SRE5 and related entries, the NP40-soluble protein abundance (concentration: 0.1mM) was determined as 1 ± 0.014 and the NP40-soluble protein abundance (concentration: 0.5mM) was found to be 0.989 ± 0.033.

For the target VPS26B (UniProt Q4G0F5), the NP40-soluble protein abundance stood at 1.02 ± 0.068 (concentration: 0.1mM) and 0.954 ± 0.14 (concentration: 0.5mM).

UniProt Q5T0B9: the NP40-soluble protein abundance was determined as 0.989 ± 0.02 (concentration: 0.1mM) and 1.01 ± 0.04 (concentration: 0.5mM).

For the target UniProt Q5T1V6 and related entries, the NP40-soluble protein abundance (concentration: 0.1mM) came to 1.01 ± 0.013 and the NP40-soluble protein abundance (concentration: 0.5mM) turned out to be 0.991 ± 0.051.

With UniProt Q16666 and related entries, the NP40-soluble protein abundance by setting is: (concentration: 0.1mM) 1 ± 0.022; (concentration: 0.5mM) 1.05 ± 0.039.

Turning to UniProt Q2PPJ7 and related entries, the NP40-soluble protein abundance (concentration: 0.1mM) is 0.961 ± 0.063 and the NP40-soluble protein abundance (concentration: 0.5mM) was 1.03 ± 0.14.

In the case of UniProt Q52LJ0-2, the NP40-soluble protein abundance (concentration: 0.1mM) was determined as 0.977 ± 0.049 and the NP40-soluble protein abundance (concentration: 0.5mM) is 0.974 ± 0.044.

Turning to UniProt Q5T3F8 and related entries, the NP40-soluble protein abundance is, setting by setting: (concentration: 0.1mM) 1.02 ± 0.1; (concentration: 0.5mM) 0.997 ± 0.042.

For TBC1D25 (UniProt Q3MII6), the NP40-soluble protein abundance is 1.03 ± 0.015 (concentration: 0.1mM) and 1.01 ± 0.018 (concentration: 0.5mM).

Turning to UniProt Q2TBE0 and related entries, the NP40-soluble protein abundance worked out at 1.01 ± 0.035 (concentration: 0.1mM) and 1.01 ± 0.037 (concentration: 0.5mM).

Turning to C19orf54 (UniProt Q5BKX5), the NP40-soluble protein abundance by setting is: (concentration: 0.1mM) 1.02 ± 0.043; (concentration: 0.5mM) 0.992 ± 0.068.

With “Q5QPM7 and related entries (UniProt Q92530)”, the NP40-soluble protein abundance came to 1 ± 0.011 (concentration: 0.1mM) and 1.01 ± 0.066 (concentration: 0.5mM).

As to “Q5T1J5 and related entries (UniProt Q9Y6H1+Q5T1J5)”, the NP40-soluble protein abundance turned out to be 1.06 ± 0.027 (concentration: 0.1mM) and 1.02 ± 0.048 (concentration: 0.5mM).

With MEX3C (UniProt Q5U5Q3), the NP40-soluble protein abundance (concentration: 0.1mM) is 0.9933 ± 0.0067 and the NP40-soluble protein abundance (concentration: 0.5mM) amounted to 1 ± 0.021.

For UniProt Q15750 and related entries, the NP40-soluble protein abundance is, setting by setting: (concentration: 0.1mM) 1.01 ± 0.055; (concentration: 0.5mM) 1 ± 0.03.

On to UniProt Q53HC0 and related entries, for which the NP40-soluble protein abundance (concentration: 0.1mM) was 0.978 ± 0.013 and the NP40-soluble protein abundance (concentration: 0.5mM) came out at 0.964 ± 0.026.

As to UniProt Q5F1R6 and related entries, the NP40-soluble protein abundance by setting is: (concentration: 0.1mM) 1.01 ± 0.017; (concentration: 0.5mM) 1.039 ± 0.0078.

For the target UniProt Q15777 and related entries, the NP40-soluble protein abundance runs as follows: (concentration: 0.1mM) 0.997 ± 0.027; (concentration: 0.5mM) 0.99 ± 0.041.

On to UniProt Q5PSV4 and related entries, for which the NP40-soluble protein abundance by setting is: (concentration: 0.1mM) 1.09 ± 0.021; (concentration: 0.5mM) 0.99819 ± 0.00018.

On to UniProt Q15365, for which the NP40-soluble protein abundance is 0.993 ± 0.03 (concentration: 0.1mM) and 1.01 ± 0.041 (concentration: 0.5mM).

As for ATP6AP1 (UniProt Q15904), the NP40-soluble protein abundance came out at 1 ± 0.014 (concentration: 0.1mM) and 0.984 ± 0.04 (concentration: 0.5mM).

Consider VAMP3 (UniProt Q15836), for which the NP40-soluble protein abundance was found to be 1 ± 0.011 (concentration: 0.1mM) and 1.002 ± 0.0087 (concentration: 0.5mM).

As to UniProt Q5T5C0 and related entries, the NP40-soluble protein abundance was determined as 0.97454 ± 0.0002 (concentration: 0.1mM) and 1.01 ± 0.033 (concentration: 0.5mM).

As for UniProt Q5THK1 and related entries, the NP40-soluble protein abundance (concentration: 0.1mM) is 0.998 ± 0.0075 and the NP40-soluble protein abundance (concentration: 0.5mM) stood at 0.976 ± 0.037.

As to CROCC (UniProt Q5TZA2), the NP40-soluble protein abundance by setting is: (concentration: 0.1mM) 0.977 ± 0.012; (concentration: 0.5mM) 0.979 ± 0.032.

Regarding OCIAD2 (UniProt Q56VL3), the NP40-soluble protein abundance is, setting by setting: (concentration: 0.1mM) 0.988 ± 0.02; (concentration: 0.5mM) 1 ± 0.034.

On to TOR2A (UniProt Q5JU69), for which the NP40-soluble protein abundance (concentration: 0.1mM) amounted to 0.994 ± 0.011 and the NP40-soluble protein abundance (concentration: 0.5mM) is 1.02 ± 0.025.

In the case of “Q5TCJ5 and related entries (UniProt Q9H3S1)”, the NP40-soluble protein abundance (concentration: 0.1mM) stood at 0.984 ± 0.024 and the NP40-soluble protein abundance (concentration: 0.5mM) came out at 0.981 ± 0.024.
